Drawing on PMC13532744, this text covers binding for one molecule.

Test [1] deals with 6xHis-caspase-4^C254A (human). Kind of test: cross-linking; combinations of caspase-4^C254A, 6xHis-UBXN1 and K63-Ub4 (10 μM each) at room temperature 2 h, then BS3 2.5 mM on ice 1 h; SDS-PAGE, Coomassie blue and immunoblot; both purified.
Test [2] has as its target 6xHis-caspase-4^C254A (human). Nature of the test: cross-linking; BS3-crosslinked gel bands of caspase-4^C254A, 6xHis-UBXN1 and K63-Ub4 digested with trypsin; crosslinked peptides identified by UPLC-MS/MS; both purified.

These are yes or no findings as the source states them, for the method shown. Binding can be weak; no strength is given. Tags and fused reporters may be left off the sequences shown.

B1: 6xHis-UBXN1 (protein, UniProt Q04323 1-297)
chain: MAELTALESLIEMGFPRGRAEKALALTGNQGIEAAMDWLMEHEDDPDVDEPLETPLGHILGREPTSSEQGGLEGSGSAAGEGKPALSEEERQEQTKRMLELVAQKQREREEREEREALERERQRRRQGQELSAARQRLQEDEMRRAAEERRREKAEELAARQRVREKIERDKAERAKKYGGSVGSQPPPVAPEPGPVPSSPSQEPPTKREYDQCRIQVRLPDGTSLTQTFRAREQLAAVRLYVELHRGEELGGGQDPVQLLSGFPRRAFSEADMERPLQELGLVPSAVLIVAKKCPS
With B1, the binding result in test [1] is “binds weakly”; in test [2] it was “binds”.
